Reference: paper PMC6985666
These are yes or no findings as the source states them, for the method shown. In cells and extracts the contact can be indirect. Some binding calls cover weakened binding; strength is not graded here. Blank lines part the entries; values can stand above or below the substance they belong to.

Experiments:
[1] = molecular target: ATP1A3 of normal astrocytes (UniProt P13637); experiment: co-IP; extracts of normal astrocytes; immunoprecipitation and immunoblotting (Figure 3C, left panel)
[2] = molecular target: aquaporin-4 (AQP4) (human (endogenous in U87)) (UniProt P55087); experiment: co-IP; U87 cell extracts (400 ug), precleared with normal rabbit IgG and protein A/G-agarose; IP with mouse anti-ATP1A3 at 4 C for 5-6 h, blot with anti-ATP1A3 and anti-AQP4; reciprocal IP of AQP4 with blot for ATP1A3
[3] = molecular target: ATP1A3 (Na+/K+-ATPase alpha 3 subunit) (human (endogenous in U87)) (UniProt P13637); experiment: as above

binding [1]: binds
Substance: AQP4 of normal astrocytes (from UniProt P55087 1-323)

binding [2]: binds
Substance: ATP1A3 (Na+/K+-ATPase alpha 3 subunit) (from UniProt P13637 1-1013)

binding [3]: binds
Substance: aquaporin-4 (AQP4) (from UniProt P55087 1-323)
